Experimental data taken from patent EP0549002A1, “Method for the preparation of an antiseptic composition containing clindamycin-hydrochloride and polymyxin” (Hak, Barend Willem, priority 1991, dated 1993).
Values after ≈ are worked out from the molar mass of the structure shown.

Experiments:
[1] = system: Mycoplasma hyorhinis type strain BTS-7; test: microbe, parasite or virus in culture; conditions: 120 h
[2] = system: Pasteurella haemolytica 3R188 and 6R132; test: microbe, parasite or virus in culture; conditions: Mannheimia haemolytica, 24 h, read-out: minimal inhibitory concentrations (MICs)

In the case of `CCC[C@@H]1C[C@@H](C(=O)N[C@@H]([C@H]2O[C@H](SC)[C@H](O)[C@@H](O)[C@H]2O)[C@H](C)Cl)N(C)C1` [clindamycin, methyl-7-chloro-6,7,8-tri-desoxy-6-trans-(1-methyl-4-propyl-L-pyrrolidine-2-carboxamido)-1-thio-L-treo-α-D-galacto-octa-pyranoside], the MIC [1] is reported as 1 µg/mL (≈ 2.35 µM) and the MIC [2] is reported as > 20 µg/mL.
